Assay results as given in article PMC10518340, “Secreted LRPAP1 binds and triggers IFNAR1 degradation to facilitate virus evasion from cellular innate immunity” (Signal Transduction and Targeted Therapy, 2023).
No constants are given. Whether binding was seen depends on the method and setting. Binding seen in cells or lysates may run through a third protein. Some binding calls cover weakened binding; strength is not graded here.

Sequences of proteins named here, by UniProt entry; tags and fusion partners are left off. A change or cut given only in a name is not applied to a line headed by its entry. Residues count along the entry.
UniProt P17181: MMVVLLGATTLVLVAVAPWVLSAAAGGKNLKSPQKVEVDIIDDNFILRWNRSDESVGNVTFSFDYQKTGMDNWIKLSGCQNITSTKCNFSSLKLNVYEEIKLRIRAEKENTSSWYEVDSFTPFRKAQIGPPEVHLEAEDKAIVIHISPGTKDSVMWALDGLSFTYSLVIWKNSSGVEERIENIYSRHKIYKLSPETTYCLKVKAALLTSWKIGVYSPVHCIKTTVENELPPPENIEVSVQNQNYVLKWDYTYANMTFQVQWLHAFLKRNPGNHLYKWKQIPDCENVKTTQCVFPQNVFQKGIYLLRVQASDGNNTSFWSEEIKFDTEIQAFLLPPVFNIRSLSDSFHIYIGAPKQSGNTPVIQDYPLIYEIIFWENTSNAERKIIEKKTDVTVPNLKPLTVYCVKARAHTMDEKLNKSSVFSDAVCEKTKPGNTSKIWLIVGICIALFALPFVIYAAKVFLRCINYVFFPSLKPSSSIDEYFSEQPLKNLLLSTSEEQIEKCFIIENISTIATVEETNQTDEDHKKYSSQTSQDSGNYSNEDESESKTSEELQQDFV
IFNAR1 ectopically expressed in HEK-293T cells: residues 28-557 of P17181
recombinant extracellular domain of IFNAR1 (ECD-IFNAR1): residues 28-436 of P17181
UniProt P30533, residues 35-357: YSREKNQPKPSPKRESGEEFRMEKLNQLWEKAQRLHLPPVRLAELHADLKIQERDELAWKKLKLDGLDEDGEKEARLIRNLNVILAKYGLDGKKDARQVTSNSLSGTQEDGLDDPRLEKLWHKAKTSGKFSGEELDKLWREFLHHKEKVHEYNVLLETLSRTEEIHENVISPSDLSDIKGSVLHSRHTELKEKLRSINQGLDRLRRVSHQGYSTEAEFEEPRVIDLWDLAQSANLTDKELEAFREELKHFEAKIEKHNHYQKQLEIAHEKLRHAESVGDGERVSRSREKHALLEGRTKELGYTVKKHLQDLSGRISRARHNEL

Key:
[1] = molecular target: IFNAR1 ectopically expressed in HEK-293T cells (UniProt P17181); experiment: co-IP; HEK-293T cells ectopically expressing LRPAP1 and IFNAR1; lysis buffer with 1% SDS, 1% NP-40; indicated antibodies overnight at 4 °C, protein A/G plus-agarose; immunoblot
[2] = molecular target: recombinant extracellular domain of IFNAR1 (ECD-IFNAR1) (UniProt P17181); experiment: pull-down; extracellular domain of IFNAR1 (Sino Biological 13222-H08H) with lysates of HEK-293T cells overexpressing LRPAP1; immunoblot; only the target purified

Substance: LRPAP1 ectopically expressed in HEK-293T cells (from UniProt P30533 35-357)
- binding [1]: binds
- binding [2]: binds
